Substitutions are numbered along the chain they refer to. Names may count otherwise. Results are given in words; binding and its absence hold for the method and conditions named. For some of these results: Binding seen in cells or lysates may run through a third protein. Some results given as binding are weak or reduced against the parent protein; the word gives no strength. For some of these results: Tags and fused reporters may be left off the sequences shown.

This is an account of results in publication PMC4859800.

Test [1] deals with T1, 3xFLAG-Mak5 (S. cerevisiae) (UniProt P38112).
T1 sequence: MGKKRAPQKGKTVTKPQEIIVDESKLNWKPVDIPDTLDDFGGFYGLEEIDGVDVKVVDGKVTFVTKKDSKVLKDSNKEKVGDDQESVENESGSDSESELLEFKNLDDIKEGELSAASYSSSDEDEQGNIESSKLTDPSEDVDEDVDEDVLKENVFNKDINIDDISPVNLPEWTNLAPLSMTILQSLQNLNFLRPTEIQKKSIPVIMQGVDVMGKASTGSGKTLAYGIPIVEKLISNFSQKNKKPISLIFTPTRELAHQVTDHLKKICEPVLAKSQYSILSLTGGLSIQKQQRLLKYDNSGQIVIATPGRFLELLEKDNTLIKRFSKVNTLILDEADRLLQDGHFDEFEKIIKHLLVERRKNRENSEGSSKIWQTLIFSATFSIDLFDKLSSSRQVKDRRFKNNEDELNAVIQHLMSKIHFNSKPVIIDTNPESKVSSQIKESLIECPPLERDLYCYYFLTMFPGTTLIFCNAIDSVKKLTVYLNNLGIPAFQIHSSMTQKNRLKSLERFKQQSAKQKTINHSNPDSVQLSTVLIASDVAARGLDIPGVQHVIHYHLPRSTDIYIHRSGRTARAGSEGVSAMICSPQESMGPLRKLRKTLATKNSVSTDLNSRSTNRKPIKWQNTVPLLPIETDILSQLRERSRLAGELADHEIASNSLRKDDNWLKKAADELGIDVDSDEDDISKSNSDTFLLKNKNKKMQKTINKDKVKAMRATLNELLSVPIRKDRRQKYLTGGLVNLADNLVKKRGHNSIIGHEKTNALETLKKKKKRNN
The test can be described thus: co-IP; yeast YPH499 co-expressing a 3xFLAG-tagged interacting protein and 3xHA-Nop4 WT or L306P; lysate in NET2 (20 mM Tris-HCl pH 7.5, 150 mM NaCl, 0.01% Nonidet P-40) on α-FLAG beads 1 hr at 4°C; α-HA western blot; HA to FLAG ratio.

The target in test [2] is T2, 3xFLAG-Nsa2 (S. cerevisiae) (UniProt P40078).
T2 sequence: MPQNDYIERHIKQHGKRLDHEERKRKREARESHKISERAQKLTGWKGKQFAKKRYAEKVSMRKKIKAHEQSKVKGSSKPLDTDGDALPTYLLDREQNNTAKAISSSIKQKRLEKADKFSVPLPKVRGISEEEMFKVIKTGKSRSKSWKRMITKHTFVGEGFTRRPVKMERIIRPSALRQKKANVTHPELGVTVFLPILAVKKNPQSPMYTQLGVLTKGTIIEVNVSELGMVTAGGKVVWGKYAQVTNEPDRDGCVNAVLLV
The test is described as above.

Test [3] deals with T3, 3xFLAG-Dbp10 (S. cerevisiae) (UniProt Q12389).
T3 sequence: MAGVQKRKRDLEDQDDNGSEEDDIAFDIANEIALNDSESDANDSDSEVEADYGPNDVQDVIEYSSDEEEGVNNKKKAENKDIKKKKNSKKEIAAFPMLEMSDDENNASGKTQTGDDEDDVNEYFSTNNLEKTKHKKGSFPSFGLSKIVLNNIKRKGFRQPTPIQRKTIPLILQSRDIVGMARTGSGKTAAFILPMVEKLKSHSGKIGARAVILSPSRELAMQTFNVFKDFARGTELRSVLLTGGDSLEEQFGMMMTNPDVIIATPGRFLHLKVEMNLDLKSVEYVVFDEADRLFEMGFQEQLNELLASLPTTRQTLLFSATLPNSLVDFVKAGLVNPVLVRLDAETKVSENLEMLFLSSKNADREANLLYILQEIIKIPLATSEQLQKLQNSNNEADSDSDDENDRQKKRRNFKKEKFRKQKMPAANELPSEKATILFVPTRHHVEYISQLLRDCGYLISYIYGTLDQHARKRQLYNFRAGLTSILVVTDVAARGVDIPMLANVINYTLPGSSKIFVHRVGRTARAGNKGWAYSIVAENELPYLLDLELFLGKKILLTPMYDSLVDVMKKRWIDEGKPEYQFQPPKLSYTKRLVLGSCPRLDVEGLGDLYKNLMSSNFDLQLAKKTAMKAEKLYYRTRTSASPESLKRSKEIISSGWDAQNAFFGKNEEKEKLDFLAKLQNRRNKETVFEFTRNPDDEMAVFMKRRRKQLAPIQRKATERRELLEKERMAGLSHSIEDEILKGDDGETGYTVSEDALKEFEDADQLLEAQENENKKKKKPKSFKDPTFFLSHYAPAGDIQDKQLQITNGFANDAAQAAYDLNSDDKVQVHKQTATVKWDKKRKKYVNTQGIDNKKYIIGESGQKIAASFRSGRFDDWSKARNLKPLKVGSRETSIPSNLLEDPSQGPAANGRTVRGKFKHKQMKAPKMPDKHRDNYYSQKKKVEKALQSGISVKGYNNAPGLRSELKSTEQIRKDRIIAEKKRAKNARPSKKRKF
The test is described as above.

In test [4] the target is T4, 3xFLAG-Nop4 (S. cerevisiae) (UniProt P37838).
T4 sequence: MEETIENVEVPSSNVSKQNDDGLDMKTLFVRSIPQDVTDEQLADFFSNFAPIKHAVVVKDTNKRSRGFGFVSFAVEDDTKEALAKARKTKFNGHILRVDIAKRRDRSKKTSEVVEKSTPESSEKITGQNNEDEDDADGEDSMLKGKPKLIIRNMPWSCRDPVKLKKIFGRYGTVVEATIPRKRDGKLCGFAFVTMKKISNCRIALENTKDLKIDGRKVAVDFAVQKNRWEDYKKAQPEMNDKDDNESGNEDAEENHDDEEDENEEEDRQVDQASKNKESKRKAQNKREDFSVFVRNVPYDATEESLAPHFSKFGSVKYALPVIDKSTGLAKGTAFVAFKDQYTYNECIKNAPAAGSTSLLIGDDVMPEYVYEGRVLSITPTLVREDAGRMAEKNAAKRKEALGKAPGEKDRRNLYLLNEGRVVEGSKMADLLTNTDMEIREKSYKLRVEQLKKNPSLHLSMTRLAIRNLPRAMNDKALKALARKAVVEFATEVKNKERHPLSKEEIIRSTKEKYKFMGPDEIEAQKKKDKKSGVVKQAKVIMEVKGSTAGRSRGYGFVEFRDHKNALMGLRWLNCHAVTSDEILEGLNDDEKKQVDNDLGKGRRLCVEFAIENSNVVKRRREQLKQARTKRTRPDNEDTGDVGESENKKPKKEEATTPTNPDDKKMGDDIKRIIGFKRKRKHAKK
Described as above.

The target in test [5] is T5, Mak5 (Y2H bait, pAS2-1) (S. cerevisiae) (UniProt P38112).
T5 sequence: T1 sequence
The test can be described thus: two-hybrid; directed Y2H; baits in pAS2-1 co-transformed with preys in pACT2 into PJ69-4α; serial dilutions on SD-Leu-Trp-His + 6 mM 3-AT, 30°C, 7 days.

For test [6], the target named is T6, Dbp10 (Y2H bait, pAS2-1) (S. cerevisiae) (UniProt Q12389).
T6 sequence: T3 sequence
Described as above.

Test [7] deals with T7, Nsa2 (Y2H bait, pAS2-1) (S. cerevisiae) (UniProt P40078).
T7 sequence: T2 sequence
The test is described as above.

Test [8] concerns the target T8, Nop4 (Y2H bait, pAS2-1) (S. cerevisiae) (UniProt P37838).
T8 sequence: T4 sequence
The description is as above.

B1: 3xHA-Nop4 WT (protein, UniProt P37838 1-685)
chain: T4 sequence
Regarding B1, the binding entry in test [1], in test [2], in test [3] and in test [4] was “binds” in each case.

B2: 3xHA-Nop4 L306P (protein, UniProt P37838 1-685)
chain: T4 sequence with L306P
For B2, the binding entry in test [3] is “binds”.

B3: Nop4 WT (Y2H prey, pACT2) (protein, UniProt P37838 1-685)
chain: T4 sequence
As for B3, the binding result in test [5], in test [6], in test [7] and in test [8] was “binds” throughout.

B4: Nop4 L306P (Y2H prey, pACT2) (protein, UniProt P37838 1-685)
chain: T4 sequence with L306P
With B4, the binding result is “no binding” in test [5], “binds” in test [6], “no binding” in test [7] and “no binding” in test [8].
